# Data as given in PubChem BioAssay AID743121 (NCATS, 2013)
# Assay: 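Genes whose silencing strengthens cell killing by camptothecin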 (primary screen)
# System: MDA-MB-231 cells, a human breast cancer line
# Reagent: single siRNA against human genes, 20 nM siRNA (0.8 pmol per well)
# Timing: 120 h (drug added 48 h after transfection, read 72 h later)
# Treatment: camptothecin 20 nM (about EC30) for 72 h; vehicle 0.1% DMSO in parallel plates
# Detection: 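CellTiter-Glo ATP signal, scaled to control siRNA as percent viability; sensitisation given as log2 of untreated divided by camptothecin-treated viability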
# Reading the numbers: log2 vehicle/camptothecin viability: higher = stronger sensitisation to camptothecin; viability with camptothecin and viability without drug: higher = more viable cells
# Hit rule: 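Active genes have an RSA gene-level p-value below 0.001, computed from the ratios of their separate siRNAs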
# The deposit covers about 26,000 reagents; below is an unselected part. In the full data, 167 (0.63%) were called active. 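Calls are per gene from RSA p-values that are not deposited; an individual active-marked siRNA can sensitise only weakly.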 Entries without a mark were called inactive. Reagents against one gene are numbered here.
Target gene,reagent no.,log2 vehicle/camptothecin viability,viability with camptothecin (% of control),viability without drug (% of control)
UGT1A9 (GeneID 54600),1,0.0377,103,105
UGT1A9 (GeneID 54600),2,-0.0291,79.2,77.6
UGT1A9 (GeneID 54600),3,-0.0364,44.1,43
UGT1A9 (GeneID 54600),4,-0.138,84.8,77.1
ACRV1 (GeneID 56),1,0.638,53.8,83.7
ACRV1 (GeneID 56),2,-0.15,114,103
ACRV1 (GeneID 56),3,-0.0585,100,96.2
ACRV1 (GeneID 56),4,-0.296,71.4,58.1
C1QTNF1 (GeneID 114897),1,-0.496,72.6,51.5
C1QTNF1 (GeneID 114897),2,-0.807,60.7,34.7
C1QTNF1 (GeneID 114897),3,-0.369,56.5,43.8
C1QTNF1 (GeneID 114897),4,0.047,50.3,52
DNAJC16 (GeneID 23341),1,-0.237,101,86.1
DNAJC16 (GeneID 23341),2,0.133,70.8,77.6
DNAJC16 (GeneID 23341),3,-0.158,86.4,77.5
DNAJC16 (GeneID 23341),4,-0.298,80.4,65.4
CSNK1A1L (GeneID 122011),1,-0.0371,52.1,50.7
CSNK1A1L (GeneID 122011),2,-0.195,60.7,53
CSNK1A1L (GeneID 122011),3,-0.183,73.8,65
CSNK1A1L (GeneID 122011),4,0.761,40.8,69.1
CD300E (GeneID 342510),1,0.23,42.6,50
CD300E (GeneID 342510),2,-0.0739,104,98.8
CD300E (GeneID 342510),3,-0.245,38.5,32.5
CD300E (GeneID 342510),4,-0.511,64,44.9
STK26 (GeneID 51765),1,-0.3,99.8,81
STK26 (GeneID 51765),2,-0.135,123,112
STK26 (GeneID 51765),3,-0.159,98.7,88.4
STK26 (GeneID 51765),4,1.08,37.6,79.7
PROM1 (GeneID 8842),1,-0.232,110,93.7
PROM1 (GeneID 8842),2,0.288,71.5,87.3
PROM1 (GeneID 8842),3,-0.217,98.4,84.6
PROM1 (GeneID 8842),4,-0.389,125,95.3
UBL7 (GeneID 84993),1,-0.267,90.5,75.3
UBL7 (GeneID 84993),2,-0.356,72,56.2
UBL7 (GeneID 84993),3,-0.238,76.1,64.6
UBL7 (GeneID 84993),4,-0.83,25,14.1
SLA2 (GeneID 84174),1,0.213,57.5,66.7
SLA2 (GeneID 84174),2,-0.556,144,97.8
SLA2 (GeneID 84174),3,-0.253,59.1,49.6
NCS1 (GeneID 23413),1,0.276,46.6,56.4
NCS1 (GeneID 23413),2,-0.0372,67.7,65.9
NCS1 (GeneID 23413),3,0.686,53.8,86.6
IDE (GeneID 3416),1,-0.0967,92.6,86.6
IDE (GeneID 3416),2,-0.0986,114,106
IDE (GeneID 3416),3,-0.0999,85.9,80.1
IDE (GeneID 3416),4,0.95,20.8,40.3
EEF1A2 (GeneID 1917),1,-0.109,94.6,87.7
EEF1A2 (GeneID 1917),2,0.224,73.1,85.4
EEF1A2 (GeneID 1917),3,-0.504,44.2,31.2
EEF1A2 (GeneID 1917),4,-0.165,95.2,85
RPS6KC1 (GeneID 26750),1,0.0017,85.5,85.6
RPS6KC1 (GeneID 26750),2,-0.11,98.1,91
RPS6KC1 (GeneID 26750),3,0.231,50.5,59.3
RPS6KC1 (GeneID 26750),4,0.0471,71.1,73.5
ABCC5 (GeneID 10057),1,-0.0796,73.7,69.7
ABCC5 (GeneID 10057),2,-0.227,112,95.8
ABCC5 (GeneID 10057),3,-0.251,124,104
ABCC5 (GeneID 10057),4,-0.0103,64.7,64.2
ERCC2 (GeneID 2068),1,-0.308,115,92.8
ERCC2 (GeneID 2068),2,-0.3,44.1,35.9
ERCC2 (GeneID 2068),3,-0.203,23.7,20.6
ERCC2 (GeneID 2068),4,0.1,56,60
NDUFAF5 (GeneID 79133),1,-0.0158,98.2,97.1
NDUFAF5 (GeneID 79133),2,-0.169,92.8,82.5
NDUFAF5 (GeneID 79133),3,-0.277,80.9,66.8
NDUFAF5 (GeneID 79133),4,-0.0272,91.1,89.4
TNFSF13 (GeneID 8741),1,0.0481,87.7,90.7
TNFSF13 (GeneID 8741),2,-0.546,33.8,23.1
TNFSF13 (GeneID 8741),3,0.124,28.6,31.1
TNFSF13 (GeneID 8741),4,-0.0843,93.8,88.5
PSMA1 (GeneID 5682),1,-0.178,14.4,12.7
PSMA1 (GeneID 5682),2,0.696,4.06,6.58
PSMA1 (GeneID 5682),3,-0.0973,13,12.2
PSMA1 (GeneID 5682),4,0.287,10,12.2
MAPK8 (GeneID 5599),1,-0.194,80.9,70.7
MAPK8 (GeneID 5599),2,-0.564,103,69.7
MAPK8 (GeneID 5599),3,-0.208,95,82.2
MAPK8 (GeneID 5599),4,-0.225,104,88.7
HERC5 (GeneID 51191),1,0.166,71.5,80.2
HERC5 (GeneID 51191),2,-0.209,30.8,26.6
HERC5 (GeneID 51191),3,-0.296,142,116
HERC5 (GeneID 51191),4,-0.249,72.7,61.2
NTRK3 (GeneID 4916),1,-0.352,70.7,55.4
NTRK3 (GeneID 4916),2,0.0824,110,116
NTRK3 (GeneID 4916),3,-0.792,60,34.6
NTRK3 (GeneID 4916),4,0.665,29.9,47.4
MAEA (GeneID 10296),1,0.156,62.7,69.9
MAEA (GeneID 10296),2,-0.626,68.5,44.4
MAEA (GeneID 10296),3,-0.0739,123,117
